Measurements published in article PMC7001992.
No constants are given. Whether binding was seen depends on the method and setting. Binding seen in cells or lysates may run through a third protein. Some entries that bind do so weakly or less than the wild type. Sequences can lack the tags named with a protein. Blank lines part the entries; values can stand above or below the binder they belong to.

Chains of the proteins cited; added tags and fusions are not shown. Lines headed by an entry give the natural chain unless they say otherwise; changes in a name come on top.
UniProt P21187: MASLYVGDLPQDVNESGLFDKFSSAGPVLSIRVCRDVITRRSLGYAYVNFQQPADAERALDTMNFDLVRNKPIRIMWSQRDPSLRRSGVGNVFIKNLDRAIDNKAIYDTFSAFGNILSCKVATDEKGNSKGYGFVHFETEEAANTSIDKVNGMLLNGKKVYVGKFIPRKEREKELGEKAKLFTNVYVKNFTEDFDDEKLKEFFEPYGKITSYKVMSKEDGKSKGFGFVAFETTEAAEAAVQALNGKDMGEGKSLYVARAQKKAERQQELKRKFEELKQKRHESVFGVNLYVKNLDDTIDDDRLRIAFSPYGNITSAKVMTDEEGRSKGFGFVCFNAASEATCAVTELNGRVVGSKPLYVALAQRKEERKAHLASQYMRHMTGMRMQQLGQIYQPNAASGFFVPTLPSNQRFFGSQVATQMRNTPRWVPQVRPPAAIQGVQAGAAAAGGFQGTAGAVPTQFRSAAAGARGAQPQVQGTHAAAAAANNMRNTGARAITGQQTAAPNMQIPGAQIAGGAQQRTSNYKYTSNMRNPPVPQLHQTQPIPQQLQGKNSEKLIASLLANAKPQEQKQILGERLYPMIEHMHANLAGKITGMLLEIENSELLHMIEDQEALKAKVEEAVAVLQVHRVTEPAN

Columns and labels:
[1] = target: poly(A) binding protein (pAbp) in S2R+ cells, co-IP of Fig 5D (Drosophila) (UniProt P21187); assay: co-IP; FLAG-Mkrn1 wild type or PAM2 mutant and pAbp in S2R+ cells; immunoblot; which partner was precipitated is not told
[2] = target: poly(A) binding protein (pAbp), endogenous in ovaries (Drosophila (endogenous in ovaries)) (UniProt P21187); assay: co-IP; ovary extracts of flies expressing Venus-Mkrn1, IP buffer (1 X PBS, 0.4% Triton X-100, 1 mM MgCl2, 5% glycerol); IP with anti-pAbp Fab antibody or α-eIF4G rabbit antibody overnight at 4°C, protein A agarose; RNase A when present; western blot
[3] = target: T1, Myc-tagged Squid (Myc-Sqd) (Drosophila) (UniProt Q08473); assay: co-IP; S2R+ cells, 2 mg protein lysate incubated 2 h with Myc-Trap or GFP-Trap beads; in the absence or presence of 50 U RNase T1; immunoblot
T1 sequence: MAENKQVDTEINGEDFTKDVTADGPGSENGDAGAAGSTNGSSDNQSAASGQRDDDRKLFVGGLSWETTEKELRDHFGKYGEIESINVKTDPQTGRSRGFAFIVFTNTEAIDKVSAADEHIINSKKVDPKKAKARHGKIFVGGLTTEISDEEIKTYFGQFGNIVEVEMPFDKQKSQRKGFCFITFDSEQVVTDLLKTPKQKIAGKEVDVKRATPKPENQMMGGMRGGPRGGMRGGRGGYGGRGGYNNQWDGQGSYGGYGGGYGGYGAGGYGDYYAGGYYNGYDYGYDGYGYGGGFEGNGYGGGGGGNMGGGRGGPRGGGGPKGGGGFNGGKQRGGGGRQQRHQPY

[4] = target: GFP-tagged poly(A) binding protein (GFP-pAbp) (Drosophila) (UniProt P21187); assay: as above
[5] = target: T2, Myc-tagged maternal expression at 31B (Myc-Me31B) (Drosophila) (UniProt P23128); assay: as above
T2 sequence: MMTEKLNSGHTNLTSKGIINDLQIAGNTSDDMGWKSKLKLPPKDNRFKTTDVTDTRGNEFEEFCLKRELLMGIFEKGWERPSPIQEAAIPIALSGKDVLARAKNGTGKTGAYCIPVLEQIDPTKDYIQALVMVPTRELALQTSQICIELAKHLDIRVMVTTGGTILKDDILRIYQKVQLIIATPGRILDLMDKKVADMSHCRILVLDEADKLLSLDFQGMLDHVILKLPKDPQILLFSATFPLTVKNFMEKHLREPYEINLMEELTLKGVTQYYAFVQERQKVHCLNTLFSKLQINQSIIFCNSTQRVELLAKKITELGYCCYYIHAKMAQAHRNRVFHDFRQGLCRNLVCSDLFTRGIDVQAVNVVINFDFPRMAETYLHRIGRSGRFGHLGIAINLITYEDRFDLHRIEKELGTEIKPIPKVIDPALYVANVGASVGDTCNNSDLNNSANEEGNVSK

B1: FLAG-tagged Mkrn1 (FLAG-Mkrn1) in S2R+ cells (protein, UniProt Q9VP20 1-386)
chain: MSAVTSSDTAISGMALGRSQTICRYYVRGICRFGELCRFSHDLSRGRPECEEQVATDVLPKPSTSSSSTIGSRSASISSQQRNWANAPVFVPSQKRYTAHEQSEFETTVDPEAVMEAQAGASYDTLAPGVSWAEVVGGPSSLNKEDYGEENSSCAWGEFSAYPIHMELCEMCDQYCLHPTDQVQRRSHNRECLQQHEQAMELSFAIARSKDKTCGICFDTIMEKAGREKRFGILPNCNHIFCLECIRTWRQAKQFENKITRACPECRVCSDFVCPSAFWMETKEEKDKLLNDYRAALGAKDCKYFKKGEGKCPFGNKCFYKHALPNGDIVDVGLPKRTRKLQSQNEIIDLLDIYLWDYVDRRDYHWLEMISSDITSSESSDYSDED
binding [1]: binds

B4: tagged Mkrn1^RING (protein, UniProt Q9VP20 1-386)
chain: MSAVTSSDTAISGMALGRSQTICRYYVRGICRFGELCRFSHDLSRGRPECEEQVATDVLPKPSTSSSSTIGSRSASISSQQRNWANAPVFVPSQKRYTAHEQSEFETTVDPEAVMEAQAGASYDTLAPGVSWAEVVGGPSSLNKEDYGEENSSCAWGEFSAYPIHMELCEMCDQYCLHPTDQVQRRSHNRECLQQHEQAMELSFAIARSKDKTCGICFDTIMEKAGREKRFGILPNCNEIFCLECIRTWRQAKQFENKITRACPECRVCSDFVCPSAFWMETKEEKDKLLNDYRAALGAKDCKYFKKGEGKCPFGNKCFYKHALPNGDIVDVGLPKRTRKLQSQNEIIDLLDIYLWDYVDRRDYHWLEMISSDITSSESSDYSDED
binding [3]: binds
binding [4]: binds
binding [5]: binds

Further lines, results first:

binding [1]: binds
B2: FLAG-tagged Mkrn1 with mutated PAM2 motif (Mkrn1^PAM2) (protein, UniProt Q9VP20 1-386)
chain: MSAVTSSDTAISGMALGRSQTICRYYVRGICRFGELCRFSHDLSRGRPECEEQVATDVLPKPSTSSSSTIGSRSASISSQQRNWANAPVAVASQKRYTAHEQSEFETTVDPEAVMEAQAGASYDTLAPGVSWAEVVGGPSSLNKEDYGEENSSCAWGEFSAYPIHMELCEMCDQYCLHPTDQVQRRSHNRECLQQHEQAMELSFAIARSKDKTCGICFDTIMEKAGREKRFGILPNCNHIFCLECIRTWRQAKQFENKITRACPECRVCSDFVCPSAFWMETKEEKDKLLNDYRAALGAKDCKYFKKGEGKCPFGNKCFYKHALPNGDIVDVGLPKRTRKLQSQNEIIDLLDIYLWDYVDRRDYHWLEMISSDITSSESSDYSDED

binding [2]: binds
B3: Venus-tagged Mkrn1 (Venus-Mkrn1) (protein, UniProt Q9VP20 1-386)
chain: MSAVTSSDTAISGMALGRSQTICRYYVRGICRFGELCRFSHDLSRGRPECEEQVATDVLPKPSTSSSSTIGSRSASISSQQRNWANAPVFVPSQKRYTAHEQSEFETTVDPEAVMEAQAGASYDTLAPGVSWAEVVGGPSSLNKEDYGEENSSCAWGEFSAYPIHMELCEMCDQYCLHPTDQVQRRSHNRECLQQHEQAMELSFAIARSKDKTCGICFDTIMEKAGREKRFGILPNCNHIFCLECIRTWRQAKQFENKITRACPECRVCSDFVCPSAFWMETKEEKDKLLNDYRAALGAKDCKYFKKGEGKCPFGNKCFYKHALPNGDIVDVGLPKRTRKLQSQNEIIDLLDIYLWDYVDRRDYHWLEMISSDITSSESSDYSDED
